At least one structure is not confirmed: it was looked up by name or label, or the drawing left a doubt.
What was measured:
[1] = system: PAX6D TetOn cells; assay: qPCR of retinal gene expression in PAX6D TetOn cells with DOX induction, with or without WNT agonist; format: cell-based, human; details: induction of PAX6D by DOX
Excerpt: We then examined the retinal progenitor population when PAX6A or PAX6D was induced. We turned on PAX6A and PAX6D separately in PAX6 KO cells after neuroepithelial cells were generated at day 6 and monitored the retinal progenitor generation along retinal differentiation. […] Thus, PAX6D but not PAX6A restores the PAX6 function in retinal specification.
We then asked if the failure of retinal specification in the PAX6D KO cells is rescued by regulating WNT signaling. Treatment of the PAX6D KO cells with IWR1 during retinal differentiation from day 0 to day 10 increased the expression of retinal related genes, including VSX2, LHX2, HES5, SIX3 and SIX6 (FIG. 8C). […] To further corroborate the role of WNTs in mediating the function of PAX6D in retinal specification, we then activated WNT pathway signaling under PAX6D induction along retinal differentiation.
PAX6 KO and PAX6D KO cell lines were designed by inserting the PGK-Puromycin in exon 8 and exon alpha of the PAX6 gene, respectively, which terminates the normal translation of PAX6 genes early and PAX6D isoform specifically. […]
Total RNA was isolated with the RNeasy Plus Mini Kit according to the manufacturer's instructions. For quantitative PCR (qPCR), cDNA was synthesized using PrimeScrip RT Reagent Kit. qPCR was performed using iTaq Universal SYBR Green Supermix. […]

[2] = system: PAX6A TetOn and PAX6D TetOn cells; assay: qPCR and Western blot of PAX6A/PAX6D expression in Tet-on inducible cell lines under DOX; format: cell-based, human; details: DOX 0.5 μg/ml

C[C@H]1c2cccc(O)c2C(=O)C2=C(O)[C@]3(O)C(=O)C(C(N)=O)=C(O)[C@@H](N(C)C)[C@@H]3[C@@H](O)[C@@H]21 [DOX, doxycycline]
retinal differentiation (expression of VSX2, LHX2, SIX6, NR2F1 and VAX2 at day 10) [1]: enhanced retinal differentiation
PAX6A or PAX6D expression in the respective Tet-on cell line (qPCR and Western blot) [2]: induced
